Source: patent US20200262930A1 (YALE UNIVERSITY, published 2020)
Residue numbers refer to the chain shown, from its start. These are yes or no findings as the source states them, for the method shown. Some entries that bind do so weakly or less than the wild type. Each block holds one binder with its values, some of them ahead of it.

Tests used:
[1] = molecular target: primate (Cynomolgus monkey) CHI3L1/YKL-40 (Cynomolgus monkey); assay: titration ELISA
[2] = molecular target: primate (Cynomolgus monkey) CHI3L1/YKL-40 (Cynomolgus monkey); assay: Western blot, SDS-PAGE (reduced) and native PAGE, 500 ng/lane recombinant protein
[3] = molecular target: primate (Cynomolgus monkey) CHI3L1/YKL-40 (Cynomolgus monkey); assay: titration ELISA (FIG. 10)

binding [1]: binds
binding [2]: binds
binding [3]: binds
B1: H1-L1 (humanized anti-YKL-40 antibody) (antibody, V domains shown)
VH: QIQLVQSGSELKKPGASVKISCKASGYTFTNYGMNWVRQAPGQGLEWMGWINTYTGEPTYADDFKGRFVFSLDTSVSTAYLQISSLKAEDTSVYFCARLGYGKFYVMDYWGQGTSVTVSS
VL: DVVMTQSPLSLPVTLGQPASISCRSSQSLVHSNGNTYLNWYQQRPGQSPRLLIYKVSNRFSGVPDRFSGSGSGTDFTLKISRVEAEDVGVYFCSQSTHVTWTFGGGTKLEIK
notes: Humanized, kappa light chain, human IgG (detected with goat anti-human IgG-HRP; the PK assay uses an anti-IgG1 capture antibody); also called anti-YKL-40 H1-L1

binding [1]: binds
B2: H11-L1 (humanized anti-YKL-40 antibody) (antibody, V domains shown)
VH: QIQLVQSGPEVKQPGASVKISCKASGYTFTNYGMNWVKQAPGQGLKWMGWINTYTGEPTYAQGFTGRFVFSLDTSASTAYLQISSLKAEDMSTYFCARLGYGKFYVMDYWGQGTSVTVSS
VL: B1 VL
notes: Humanized, human IgG

binding [1]: binds
binding [2]: binds
B3: H4-L1 (humanized anti-YKL-40 antibody) (antibody, V domains shown)
VH: B1 VH with E46K
VL: B1 VL
notes: Humanized, human IgG (detected with goat anti-human IgG-HRP)
